Our source for the binding values is patent US20260209319A1.

Chains of the proteins cited; added tags and fusions are not shown. Lines headed by an entry give the natural chain unless they say otherwise; changes in a name come on top. A line that says so, or that is headed by a name, gives the form on record, which may keep a tag or linker.
mesothelin (soluble, recombinant) (Q13421, form named): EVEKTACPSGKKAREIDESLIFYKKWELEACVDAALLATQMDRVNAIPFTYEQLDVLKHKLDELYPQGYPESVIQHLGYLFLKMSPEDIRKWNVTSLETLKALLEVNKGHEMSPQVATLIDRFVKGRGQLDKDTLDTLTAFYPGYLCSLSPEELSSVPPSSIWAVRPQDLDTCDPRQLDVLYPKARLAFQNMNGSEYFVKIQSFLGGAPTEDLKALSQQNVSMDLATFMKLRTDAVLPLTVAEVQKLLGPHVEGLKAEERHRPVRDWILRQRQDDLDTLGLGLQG

Residue numbers refer to the chain shown, from its start. No constants are given. Whether binding was seen depends on the method and setting. Some binding calls cover weakened binding; strength is not graded here.

The target of assay [1] is mesothelin (soluble, recombinant) (UniProt Q13421). Nature of the assay: Octet, IgG captured on anti-human Fc (AHC) biosensor, 125 nM mesothelin, 5 min association, 5 min dissociation [panel MSLN-1].
Assay [2] has the same target. Put plainly: Octet, IgG captured on anti-human Fc (AHC) biosensor, 125 nM mesothelin, 5 min association, 5 min dissociation [panel MSLN-18]. (Biolayer interferometry detects binding as a change in optical thickness at a sensor tip.)
For assay [3] the target is unchanged. Nature of the assay: Octet, IgG captured on anti-human Fc (AHC) biosensor, 125 nM mesothelin, 5 min association, 5 min dissociation [panel MSLN-6].
For assay [4] the target is unchanged. Put plainly: Octet, IgG captured on anti-human Fc (AHC) biosensor, 125 nM mesothelin, 5 min association, 5 min dissociation [panel MSLN-2].
Assay [5] shares this target. Nature of the assay: Octet, IgG captured on anti-human Fc (AHC) biosensor, 125 nM mesothelin, 5 min association, 5 min dissociation [panel MSLN-13].
Assay [6] shares this target. Put plainly: Octet, IgG captured on anti-human Fc (AHC) biosensor, 125 nM mesothelin, 5 min association, 5 min dissociation [panel MSLN-14].
For assay [7] the target is unchanged. Nature of the assay: Octet, IgG captured on anti-human Fc (AHC) biosensor, 125 nM mesothelin, 5 min association, 5 min dissociation [panel MSLN-16].
For assay [8] the target is unchanged. Nature of the assay: Octet, IgG captured on anti-human Fc (AHC) biosensor, 125 nM mesothelin, 5 min association, 5 min dissociation [panel MSLN-10].
Assay [9] shares this target. Put plainly: Octet, IgG captured on anti-human Fc (AHC) biosensor, 125 nM mesothelin, 5 min association, 5 min dissociation [panel MSLN-17].
The target is the same in assay [10]. Put plainly: Octet, IgG captured on anti-human Fc (AHC) biosensor, 125 nM mesothelin, 5 min association, 5 min dissociation [panel MSLN-19].
Assay [11] shares this target. Put plainly: Octet, IgG captured on anti-human Fc (AHC) biosensor, 125 nM mesothelin, 5 min association, 5 min dissociation [panel MSLN-7].
The target is the same in assay [12]. Nature of the assay: Octet, IgG captured on anti-human Fc (AHC) biosensor, 125 nM mesothelin, 5 min association, 5 min dissociation [panel MSLN-3].
Assay [13] has the same target. Nature of the assay: Octet, IgG captured on anti-human Fc (AHC) biosensor, 125 nM mesothelin, 5 min association, 5 min dissociation [panel MSLN-15].
Assay [14] has the same target. Put plainly: Octet, IgG captured on anti-human Fc (AHC) biosensor, 125 nM mesothelin, 5 min association, 5 min dissociation [panel MSLN-11].
Assay [15] shares this target. Put plainly: Octet, IgG captured on anti-human Fc (AHC) biosensor, 125 nM mesothelin, 5 min association, 5 min dissociation [panel MSLN-5].
Assay [16] shares this target. Nature of the assay: Octet, IgG captured on anti-human Fc (AHC) biosensor, 125 nM mesothelin, 5 min association, 5 min dissociation [panel MSLN-9].

B1: MSLN-1 (antibody, V domains shown)
VH: QVQLQESGPGLVKPSETLSLTCTVSGGSVSSYHDLWSWIRQPPGKGLEWIGYIYYSGSTNYNPSLKSRVTISVDTSKNQFSLKLSSVTAADTAVYYCAREDALTGFDIWGQGTMVTVSS
VL: DIQMTQSPSSLSASVGDRVTITCRASQSISSYLNWYQQKPGKAPKLLIYAASSLQSGVPSRFSGSGSGTDFTLTISSLQPEDFATYYCQQSYDASYTFGGGTKVEIK
As for B1, the binding entry in assay [1] is recorded as “binds”.

B2: MSLN-18 (antibody, V domains shown)
VH: B1 VH with Y32R, H33D, E100D, D101F, A102V, T104S
VL: B1 VL with I29S, S30R, S31Y, L33V, S91P
For B2, the binding entry in assay [2] was “binds”.

B3: MSLN-6 (antibody, V domains shown)
VH: B1 VH with Y32R, H33D, E100D, D101F, A102V, T104S
VL: B1 VL
On to B3, for which the binding entry in assay [3] is listed as “binds”.

B4: MSLN-2 (antibody, V domains shown)
VH: B1 VH with Y32R, H33D
VL: B1 VL
Consider B4, for which, in assay [4], the binding result is recorded as “binds”.

B5: MSLN-13 (antibody, V domains shown)
VH: B1 VH
VL: B1 VL with I29S, S30R, S31Y, L33V, S91P
Regarding B5, the binding entry in [5] was “binds”.

B6: MSLN-14 (antibody, V domains shown)
VH: B1 VH with Y32R, H33D
VL: B1 VL with I29S, S30R, S31Y, L33V, S91P
Regarding B6, the binding entry in [6] is on record as “binds”.

B7: MSLN-16 (antibody, V domains shown)
VH: B1 VH with H33Y, D34S, L35T
VL: B1 VL with I29S, S30R, S31Y, L33V, S91P
For B7, the binding result in assay [7] is reported as “binds”.

B8: MSLN-10 (antibody, V domains shown)
VH: B1 VH with Y32R, H33D, E100D, D101N, A102V, L103F
VL: B1 VL
B8: the binding result in assay [8] is recorded as “binds”.

B9: MSLN-17 (antibody, V domains shown)
VH: B1 VH with E100D, D101F, A102V, T104S
VL: B1 VL with I29S, S30R, S31Y, L33V, S91P
As to B9, in [9], the binding result was “binds”.

B10: MSLN-19 (antibody, V domains shown)
VH: B1 VH with Y32F, H33T, L35T, E100D, D101F, A102V, T104S
VL: B1 VL with I29S, S30R, S31Y, L33V, S91P
Take B10: the binding result in assay [10] is reported as “binds”.

B11: MSLN-7 (antibody, V domains shown)
VH: B1 VH with Y32F, H33T, L35T, E100D, D101F, A102V, T104S
VL: B1 VL
Regarding B11, the binding result in [11] is reported as “binds”.

B12: MSLN-3 (antibody, V domains shown)
VH: B1 VH with Y32F, H33T, L35T
VL: B1 VL
Regarding B12, the binding result in [12] is “binds”.

B13: MSLN-15 (antibody, V domains shown)
VH: B1 VH with Y32F, H33T, L35T
VL: B1 VL with I29S, S30R, S31Y, L33V, S91P
With B13, the binding result in assay [13] is recorded as “binds”.

B14: MSLN-11 (antibody, V domains shown)
VH: B1 VH with Y32F, H33T, L35T, E100D, D101N, A102V, L103F
VL: B1 VL
Regarding B14, the binding result in assay [14] was “binds”.

B15: MSLN-5 (antibody, V domains shown)
VH: B1 VH with E100D, D101F, A102V, T104S
VL: B1 VL
As to B15, the binding result in assay [15] was “binds”.

B16: MSLN-9 (antibody, V domains shown)
VH: B1 VH with E100D, D101N, A102V, L103F
VL: B1 VL
For B16, the binding entry in [16] is recorded as “binds”.
